Source: paper PMC11167002
No constants are given. Whether binding was seen depends on the method and setting. In cells and extracts the contact can be indirect. Some results given as binding are weak or reduced against the parent protein; the word gives no strength.

Chains of the proteins cited; added tags and fusions are not shown.
UniProt Q8ND24: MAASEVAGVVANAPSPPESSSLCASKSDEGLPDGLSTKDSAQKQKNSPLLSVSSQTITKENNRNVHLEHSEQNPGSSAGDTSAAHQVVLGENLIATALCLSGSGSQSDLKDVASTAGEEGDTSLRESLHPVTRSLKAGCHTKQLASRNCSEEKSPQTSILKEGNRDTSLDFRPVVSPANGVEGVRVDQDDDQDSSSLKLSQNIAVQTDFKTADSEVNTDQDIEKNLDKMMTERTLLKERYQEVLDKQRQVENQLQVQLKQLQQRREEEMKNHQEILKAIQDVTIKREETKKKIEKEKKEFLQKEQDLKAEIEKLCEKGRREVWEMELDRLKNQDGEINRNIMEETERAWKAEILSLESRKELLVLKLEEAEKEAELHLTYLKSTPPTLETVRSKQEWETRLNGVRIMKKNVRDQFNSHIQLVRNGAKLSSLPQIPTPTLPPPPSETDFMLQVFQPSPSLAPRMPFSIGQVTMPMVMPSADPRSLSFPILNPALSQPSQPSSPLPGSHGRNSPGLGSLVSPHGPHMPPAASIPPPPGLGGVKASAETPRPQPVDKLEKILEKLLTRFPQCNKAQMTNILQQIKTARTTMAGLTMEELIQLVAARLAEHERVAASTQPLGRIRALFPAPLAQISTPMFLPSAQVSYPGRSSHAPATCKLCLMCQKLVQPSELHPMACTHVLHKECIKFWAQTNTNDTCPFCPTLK

Target: Flag-RNF214 (human) (UniProt Q8ND24)
Assay: co-IP; HA-tagged and Flag-tagged RNF214 expressed together; wild type and coiled-coil deletion mutant; cells not told in the text shown

For Flag-RNF214 (from UniProt Q8ND24 1-703), the binding was “binds”.
